The source of these data is US7183376.

The chains behind the UniProt entries cited, without tags or fusion partners. Residues count along the entry.
UniProt P16410, residues 36-161: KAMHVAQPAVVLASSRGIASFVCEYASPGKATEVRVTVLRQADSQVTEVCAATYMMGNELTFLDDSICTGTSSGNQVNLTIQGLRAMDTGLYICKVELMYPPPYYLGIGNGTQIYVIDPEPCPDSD
UniProt P10747, residues 19-152: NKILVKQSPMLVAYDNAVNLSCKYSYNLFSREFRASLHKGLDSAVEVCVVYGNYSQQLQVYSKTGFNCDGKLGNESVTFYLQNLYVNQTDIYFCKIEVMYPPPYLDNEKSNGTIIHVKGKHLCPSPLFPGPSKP

Experiment [1] addresses soluble CTLA-4-Ig Fc fusion protein (extracellular domain of human CTLA-4 and Fc portion of human IgG1; R&D Systems) (human) (UniProt P16410). Briefly: flow cytometry of transfected cells with labeled receptor-Ig.
For experiment [2], the target named is soluble CD28-Ig Fc fusion protein (extracellular domain of human CD28 and Fc portion of human IgG1; R&D Systems) (human) (UniProt P10747). Described as above.

These are yes or no findings as the source states them, for the method shown. Some entries that bind do so weakly or less than the wild type.

B1: Round 1 CD28BP-118 (Clone 118) (ligand)
chain: GISQVTKSVKEMAALSCDYNISIDELARMRIYWQKDQQMVLSIISGQVEVWPEYKNRTFPDIINNLSLMILALRLSDKGTYTCVVQKNENGSFRREHLTSVTLSIRADFPVPSITDIGHPAPNVKRIRCSASGDFPEPRLAWMEDGEELNAVNTTVDQDLDTELYSVSSELDFNVTNNHSIVCLIKYGELSVSQIFPWSKPKQEPPIDQLPFWVIIPVSGALVLTAVVLYCLACRHVARWKRTRRNEETVGTERLSPIYLGSAQSSG
As to B1, the binding entry in experiment [1] and in experiment [2] was “binds” throughout.
